Results taken from patent US8846912B2, “Tartrate salts of quinazoline based EGFR inhibitors containing a zinc binding moiety” (Curis, Inc., priority 2007, dated 2014).

Key:
Test in all cases: Cell proliferation assay (ATPlite)
Assay type in all cases: cell-based
Breast_MCF7 = conditions: MCF-7, Breast adenocarcinoma (Table D); read-out: IC50 in cancer cell line
Experimental: (§1) Cell Proliferation Assay:
(§2) Cancer cell lines were plated at 5,000 to 10,000 per well in 96-well flatted bottomed plates with various concentration of compounds. The cells were incubated with compounds for 72 hours in the presence of 0.5% of fetal bovine serum. Growth inhibition was accessed by adenosine triphosphate (ATP) content assay using Perkin Elmer ATPlite kit. ATPlite is an ATP monitoring system based on firefly luciferase. Briefly, 25 μl of mammalian cell lysis solution was added to 50 μl of phenol red-free culture medium per well to lyse the cells and stabilize the ATP. 25 μl of substrate solution was then added to the well and subsequently the luminescence was measured.

Breast_MDAMB468 = conditions: MDA-MB-468, Breast adenocarcinoma (Table D); read-out: IC50 in cancer cell line
Experimental: as §1, §2

Breast_SkBr3 = conditions: SKBr3, Breast carcinoma (Table D); read-out: IC50 in cancer cell line
Experimental: as §1, §2

Caki-1 Renal carcinoma = conditions: Caki-1, Renal carcinoma (Table D); read-out: IC50 in cancer cell line
Experimental: as §1, §2

Colon_HCT116 = conditions: HCT116, Colon cancer (Table D); read-out: IC50 in cancer cell line
Experimental: as §1, §2

Epidermoid_A431 = conditions: A431, Epidermoid carcinoma (Table D); read-out: IC50 in cancer cell line
Experimental: as §1, §2

[1] = system: MDA-MB-231 Breast adenocarcinoma; conditions: MDA-MB-231, Breast adenocarcinoma (Table D); read-out: IC50 in cancer cell line
Experimental: as §1, §2

Prostate_22RV1 = conditions: 22RV1, Prostate carcinoma (Table D); read-out: IC50 in cancer cell line
Experimental: as §1, §2

Prostate_PC3 = conditions: PC-3, Prostate adenocarcinoma (Table D); read-out: IC50 in cancer cell line
Experimental: as §1, §2

- IC50 (Caki-1 Renal carcinoma): 0.05 to 0.5 µM
- IC50 [1]: 0.05 to 0.5 µM
Structure (SMILES): O=C(CCCCCCC(=O)Nc1ccccc1)NO [SAHA]
- IC50 (Breast_MCF7): 0.5 to 5 µM
- IC50 (Breast_MDAMB468): 0.5 to 5 µM
- IC50 (Breast_SkBr3): 0.5 to 5 µM
- IC50 (Colon_HCT116): 0.5 to 5 µM
- IC50 (Epidermoid_A431): 0.5 to 5 µM
- IC50 (Prostate_22RV1): 0.05 to 0.5 µM
- IC50 (Prostate_PC3): 0.5 to 5 µM
